The results in this text go back to PubChem BioAssay AID330 (DTP/NCI, 2004).

This experiment has as its system P388 leukemia ip, CD2F1 mice, survival T/C. In words: NCI In Vivo Anticancer Drug Screen. Data for tumor model P388 Leukemia (intraperitoneal) in CD2F1 (CDF1) mice. As to conditions: T/C endpoint: median survival time, higher T/C = longer survival.
The mark [1] stands for this setting: dose: 100.0 mg/kg/injection, schedule: Q04DX003 (ip), vehicle: Klucel (hydroxypropylcellulose) (HPC).
Setting [2] is: dose: 400.0 mg/kg/injection, schedule: Q01DX009 (ip), vehicle: Klucel (hydroxypropylcellulose) (HPC).
[3] abbreviates: dose: 100.0 mg/kg/injection, schedule: Q01DX005 (ip), vehicle: saline.
Setting [4] is: dose: 200.0 mg/kg/injection, schedule: Q01DX005 (ip), vehicle: saline.
The mark [5] stands for this setting: dose: 200.0 mg/kg/injection, schedule: Q01DX009 (ip), vehicle: Klucel (hydroxypropylcellulose) (HPC).
The mark [6] stands for this setting: dose: 200.0 mg/kg/injection, schedule: Q01DX009 (ip), vehicle: saline.
[7] abbreviates: dose: 50.0 mg/kg/injection, schedule: Q01DX009 (ip), vehicle: saline.
Where [8] appears, read: dose: 100.0 mg/kg/injection, schedule: Q01DX009 (ip), vehicle: saline.
The mark [9] stands for this setting: dose: 100.0 mg/kg/injection, schedule: Q01DX009 (ip), vehicle: suspension in saline.
Where [10] appears, read: dose: 50.0 mg/kg/injection, schedule: Q01DX005 (ip), vehicle: saline with Tween-80.
Where [11] appears, read: dose: 100.0 mg/kg/injection, schedule: Q01DX005 (ip), vehicle: saline with Tween-80.
[12] abbreviates: dose: 200.0 mg/kg/injection, schedule: Q01DX005 (ip), vehicle: saline with Tween-80.

The list does not hold the whole screen: it gathers tests that were run many times, whatever their T/C, doses with no T/C, and many T/C values between a quarter and a half above the control. Further doses and runs are listed elsewhere. T/C gives the treated animals as a percentage of the vehicle group. Some entries give survivors of the animals treated and no T/C: the source holds a T/C of zero for them, seemingly a mark for toxic or unscored doses. Some survivor counts are full or nearly so, which does not show that the dose was tolerated: the source hardly ever lists a survival T/C far under the control, and the zero likely stands for such cases as well. Survivors were counted at the toxicity check, usually on the fifth day, unless a day is given; later deaths do not show. Schedule codes are those of the source, read here as Q, the interval in days (D) or hours (H), X, the number of doses. Some entries were tested several times; the results are listed from low to high. Some molecules as drawn cover several salts, stereoisomers or complexes of the source; a dose is that of the sample tested. For survival time, the PubChem record calls one and a half times the control and up active, and a quarter to a half above the control has no call in these data; cut-offs in other NCI protocols can differ.

As to `Cc1cc(C(C(N)=O)c2ccccc2)ccc1N(CCCl)CCCl` (stereo not drawn), the T/C was 148 % of control (dose: 25.0 mg/kg/injection, schedule: Q04DX003 (ip), vehicle: Klucel (hydroxypropylcellulose) (HPC)); 146 % of control (dose: 50.0 mg/kg/injection, schedule: Q04DX003 (ip), vehicle: Klucel (hydroxypropylcellulose) (HPC)); 146 % of control under setting [1]. For the same molecule, the survivor count (dose: 37.5 mg/kg/injection, schedule: Q01DX009 (ip), vehicle: other) is reported as 6 of 6; the survivor count under setting [1] was 6 of 6; the survivor count (dose: 200.0 mg/kg/injection, schedule: Q04DX003 (ip), vehicle: Klucel (hydroxypropylcellulose) (HPC)) was 1 of 6; the survivor count (dose: 400.0 mg/kg/injection, schedule: Q04DX003 (ip), vehicle: Klucel (hydroxypropylcellulose) (HPC)) was 1 of 6.

As to `Cc1ccc(S(=O)(=O)NC(=O)C2C(=O)CC3(CCCCC3)CC2=O)cc1`, under setting [2], the survivor count is listed as 3 of 6.

Consider `CCCCCC(=N\N=C(N)N)/C(C)=N/N=C(N)N`, for which the survivor count reads like this: under setting [3], 0 of 6; under setting [4], 0 of 6.

Regarding `CS(=O)(=O)OCCOS(C)(=O)=O`, the T/C is 133 % of control under setting [5], 133 % of control under setting [6] and 143 % of control under setting [2].

For `C#CCC(B1OCCO1)B1OCCO1`, the survivor count (dose: 100.0 mg/kg/injection, schedule: Q01DX001 (ip), vehicle: saline) was 5 of 6.

For the molecule `C=C/[Se](=C(/C#N)C(=O)c1ccccc1)c1ccccc1` (stereo not drawn), the survivor count reads like this: under setting [7], 6 of 6; under setting [8], 3 of 6; under setting [6], 1 of 6.

On to `C/C(=N\NC(=S)N1CCCCCC1)c1cc2ccccc2cn1`, for which the survivor count (dose: 50.0 mg/kg/injection, schedule: Q01DX005 (ip), vehicle: Klucel (hydroxypropylcellulose) (HPC)) was 6 of 6; the survivor count (dose: 100.0 mg/kg/injection, schedule: Q01DX005 (ip), vehicle: Klucel (hydroxypropylcellulose) (HPC)) is recorded as 6 of 6; the survivor count (dose: 200.0 mg/kg/injection, schedule: Q01DX005 (ip), vehicle: Klucel (hydroxypropylcellulose) (HPC)) is recorded as 5 of 6.

As for `COC1NC(=S)N(C(C)(C)C)C1(C)C` (stereo not drawn), the survivor count is on record as 3 of 6 under setting [9] and 0 of 6 (dose: 200.0 mg/kg/injection, schedule: Q01DX009 (ip), vehicle: suspension in saline).

On to `CN1CC[C@]23c4c5ccc(O)c4O[C@H]2C(=O)CC[C@H]3[C@H]1C5`, for which the survivor count under setting [8] was 2 of 6 and the survivor count under setting [6] is recorded as 0 of 6.

Turning to `c1ccc([P+](COC[P+](c2ccccc2)(c2ccccc2)c2ccccc2)(c2ccccc2)c2ccccc2)cc1`, the survivor count (dose: 25.0 mg/kg/injection, schedule: Q01DX009 (ip), vehicle: Klucel (hydroxypropylcellulose) (HPC)) is 0 of 6.

On to `CCCCCCCCCCCCCC(=O)Oc1ccc[nH]c1=O`, for which the survivor count under setting [10] is 6 of 6; the survivor count under setting [11] is recorded as 6 of 6; the survivor count under setting [12] was 6 of 6; the survivor count (dose: 400.0 mg/kg/injection, schedule: Q01DX005 (ip), vehicle: saline with Tween-80) was 6 of 6.

With `COc1cc2cc[n+](C)c(Cc3ccc(Oc4cc(Cc5c6cc(OC)c(OC)cc6cc[n+]5C)ccc4OC)cc3)c2cc1OC`, the survivor count (dose: 10.0 mg/kg/injection, schedule: Q01DX009 (ip), vehicle: saline) is on record as 1 of 6; the survivor count (dose: 20.0 mg/kg/injection, schedule: Q01DX009 (ip), vehicle: saline) is on record as 0 of 6; the survivor count (dose: 40.0 mg/kg/injection, schedule: Q01DX009 (ip), vehicle: saline) is 0 of 6; the survivor count (dose: 80.0 mg/kg/injection, schedule: Q01DX009 (ip), vehicle: saline) is on record as 0 of 6.

For `O=c1[nH]c2ccccc2[nH]1`, the survivor count under setting [9] is 6 of 6, the survivor count under setting [5] is 6 of 6 and the survivor count under setting [2] is given as 4 of 6.

On to `Cc1cc(=NCCCN(C)C)c2ccc3c(ccc4c(=NCCCN(C)C)cc(C)n(O)c43)c2n1O`, for which the T/C (dose: 25.0 mg/kg/injection, schedule: Q01DX009 (ip), vehicle: water) was 132 % of control. Moreover, the survivor count is, setting by setting: (dose: 50.0 mg/kg/injection, schedule: Q01DX009 (ip), vehicle: water) 2 of 5, 3 of 5, 5 of 5; (dose: 100.0 mg/kg/injection, schedule: Q01DX009 (ip), vehicle: distilled water + alcohol) 0 of 5; (dose: 100.0 mg/kg/injection, schedule: Q01DX009 (ip), vehicle: water) 0 of 5.

For the molecule `CCC(/C=N/N=C(N)N)=N\N=C(N)N`, the survivor count under setting [4] is given as 0 of 6.

Take `CCCN(CCNc1cc(OC)cc2cccnc12)C(C)C`: the survivor count is 3 of 5 under setting [3] and 0 of 5 under setting [4].

Turning to `CCCCCCCCSP(SCCCCCCCC)SCCCCCCCC`, the survivor count under setting [7] was 3 of 6 and 6 of 6.

Regarding `Nc1nc(/C=C\c2ccccc2)cc(-c2cc(/C=C\c3ccccc3)nc(N)n2)n1`, under “dose: 120.0 mg/kg/injection, schedule: Q01DX005 (ip), vehicle: Klucel (hydroxypropylcellulose) (HPC)”, the survivor count was 6 of 6.

On to `Cn1c(COc2ccc(/C=N\N/C(N)=N/N=C/c3ccc(OCc4c[n+]5ccccc5n4C)cc3)cc2)c[n+]2ccccc12`, for which the survivor count was 0 of 6 and 1 of 6 under setting [10]; 0 of 6 under setting [11]; 0 of 6 under setting [12].

Regarding `COc1ccc(CCN2C(=O)CC(CC3=NCCc4cc(OC)c(OC)cc43)CC2=O)cc1OC`, the survivor count under setting [4] was 0 of 6.

In the case of `CN(C)CCCN=c1c2ccccc2n(O)c2cccc([N+](=O)[O-])c12`, the T/C (dose: 3.12 mg/kg/injection, schedule: Q01DX009 (ip), vehicle: saline with Tween-80) was 132 % of control; the T/C (dose: 6.25 mg/kg/injection, schedule: Q01DX009 (ip), vehicle: saline with Tween-80) was 140 % of control; the T/C (dose: 6.25 mg/kg/injection, schedule: Q01DX009 (ip), vehicle: saline) is 131 % of control. Further, the survivor count (dose: 12.5 mg/kg/injection, schedule: Q01DX009 (ip), vehicle: saline) is listed as 6 of 6; the survivor count under setting [7] was 0 of 6; the survivor count under setting [8] is reported as 0 of 6; the survivor count under setting [6] is recorded as 0 of 6.

Consider `CCOC(=O)c1[nH]cnc1/N=N/N(C)CCO`, for which the T/C was 131 % of control (dose: 100.0 mg/kg/injection, schedule: Q01DX009 (ip), vehicle: saline sonified); 136 % of control (dose: 200.0 mg/kg/injection, schedule: Q01DX009 (ip), vehicle: saline sonified); 140 % of control (dose: 400.0 mg/kg/injection, schedule: Q01DX009 (ip), vehicle: saline sonified).

Turning to `COc1ccc(SC(N(C)C)=[N+](C)C)cc1`, the survivor count is given as 0 of 6 (dose: 120.0 mg/kg/injection, schedule: Q01DX005 (ip), vehicle: saline) and 0 of 6 (dose: 240.0 mg/kg/injection, schedule: Q01DX005 (ip), vehicle: saline).

Turning to `C[N+]1(Cc2ccccc2)CCCC(O)C1` (stereo not drawn), the survivor count was 0 of 6 (dose: 60.0 mg/kg/injection, schedule: Q01DX005 (ip), vehicle: saline with Tween-80); 0 of 6 (dose: 120.0 mg/kg/injection, schedule: Q01DX005 (ip), vehicle: saline with Tween-80); 0 of 6 (dose: 240.0 mg/kg/injection, schedule: Q01DX005 (ip), vehicle: saline with Tween-80).

For the molecule `Nc1ccc(NCCC2CCCN3CCCCC23)c2c(=O)c3ccccc3sc12` (stereo not drawn), the survivor count (dose: 320.0 mg/kg/injection, schedule: Q01DX005 (ip), vehicle: saline with Tween-80) is given as 5 of 6.

For `N=C(N)c1ccc2oc(/C=C/C=C/c3cc4cc(C(=N)N)ccc4o3)cc2c1`, the T/C is 125 % of control (dose: 100.0 mg/kg/injection, schedule: Q04DX003 (ip), vehicle: suspension in saline); 129 % of control (dose: 200.0 mg/kg/injection, schedule: Q04DX003 (ip), vehicle: suspension in saline); 134 % of control (dose: 600.0 mg/kg/injection, schedule: Q04DX003 (ip), vehicle: suspension in saline).
